The list shows a part of the results. Residues, ends and D or L forms follow the SMILES beside them. *: point of attachment. Cbz = O=C(OCc1ccccc1)*
What was measured:
Assay in all cases: log2 fold change, soluble protein after heating vs DMSO (PISA); higher = thermal stabilisation; K562 cells, 10 uM, 30 min; active = over 0.2 and 3.5 SD of the protein, either way, in both replicates (recomputed)
erlotinib = compound: C#Cc1cccc(Nc2ncnc3cc(OCCOC)c(OCCOC)cc23)c1 [erlotinib]
In short: (§1)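 K562 cells at 2×10^6 cells/mL were treated for 30 min with 10 μM compound, and aliquots were heated for 3 min over 48°C-58°C before pooling. Extraction used PBS with 0.5% NP-40 at 4°C, and soluble protein was the supernatant after 21,000xg for 90 min, measured by TMTpro 16plex LC-MS/MS with channel sums equalised. Thermal stability values, relative to control samples and from duplicates, are log2 fold changes.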

Sequences of proteins named here, by UniProt entry; tags and fusion partners are left off. A change or cut given only in a name is not applied to a line headed by its entry.
UniProt Q9Y6W3: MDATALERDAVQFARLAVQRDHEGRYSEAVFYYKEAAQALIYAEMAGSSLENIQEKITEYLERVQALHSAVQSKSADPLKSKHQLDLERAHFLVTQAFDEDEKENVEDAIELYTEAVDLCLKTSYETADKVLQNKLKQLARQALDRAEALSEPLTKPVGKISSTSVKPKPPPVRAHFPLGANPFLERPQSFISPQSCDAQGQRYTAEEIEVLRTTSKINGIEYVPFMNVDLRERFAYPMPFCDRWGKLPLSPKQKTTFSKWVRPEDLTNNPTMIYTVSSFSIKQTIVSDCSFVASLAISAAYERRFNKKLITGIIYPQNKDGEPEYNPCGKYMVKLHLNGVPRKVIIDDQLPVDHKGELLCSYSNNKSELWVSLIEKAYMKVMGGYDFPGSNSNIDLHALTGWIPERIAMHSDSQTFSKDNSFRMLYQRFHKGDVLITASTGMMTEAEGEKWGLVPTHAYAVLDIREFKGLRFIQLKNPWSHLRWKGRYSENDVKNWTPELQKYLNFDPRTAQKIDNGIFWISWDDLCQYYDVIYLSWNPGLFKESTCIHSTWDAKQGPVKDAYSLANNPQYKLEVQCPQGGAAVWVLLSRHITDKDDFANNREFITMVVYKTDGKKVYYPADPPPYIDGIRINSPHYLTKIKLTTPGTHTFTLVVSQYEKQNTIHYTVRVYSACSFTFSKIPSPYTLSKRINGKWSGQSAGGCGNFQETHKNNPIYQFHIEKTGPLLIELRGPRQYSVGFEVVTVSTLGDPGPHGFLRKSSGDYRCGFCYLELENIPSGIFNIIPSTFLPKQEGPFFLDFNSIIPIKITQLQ
UniProt P01024, whole entry, looked up: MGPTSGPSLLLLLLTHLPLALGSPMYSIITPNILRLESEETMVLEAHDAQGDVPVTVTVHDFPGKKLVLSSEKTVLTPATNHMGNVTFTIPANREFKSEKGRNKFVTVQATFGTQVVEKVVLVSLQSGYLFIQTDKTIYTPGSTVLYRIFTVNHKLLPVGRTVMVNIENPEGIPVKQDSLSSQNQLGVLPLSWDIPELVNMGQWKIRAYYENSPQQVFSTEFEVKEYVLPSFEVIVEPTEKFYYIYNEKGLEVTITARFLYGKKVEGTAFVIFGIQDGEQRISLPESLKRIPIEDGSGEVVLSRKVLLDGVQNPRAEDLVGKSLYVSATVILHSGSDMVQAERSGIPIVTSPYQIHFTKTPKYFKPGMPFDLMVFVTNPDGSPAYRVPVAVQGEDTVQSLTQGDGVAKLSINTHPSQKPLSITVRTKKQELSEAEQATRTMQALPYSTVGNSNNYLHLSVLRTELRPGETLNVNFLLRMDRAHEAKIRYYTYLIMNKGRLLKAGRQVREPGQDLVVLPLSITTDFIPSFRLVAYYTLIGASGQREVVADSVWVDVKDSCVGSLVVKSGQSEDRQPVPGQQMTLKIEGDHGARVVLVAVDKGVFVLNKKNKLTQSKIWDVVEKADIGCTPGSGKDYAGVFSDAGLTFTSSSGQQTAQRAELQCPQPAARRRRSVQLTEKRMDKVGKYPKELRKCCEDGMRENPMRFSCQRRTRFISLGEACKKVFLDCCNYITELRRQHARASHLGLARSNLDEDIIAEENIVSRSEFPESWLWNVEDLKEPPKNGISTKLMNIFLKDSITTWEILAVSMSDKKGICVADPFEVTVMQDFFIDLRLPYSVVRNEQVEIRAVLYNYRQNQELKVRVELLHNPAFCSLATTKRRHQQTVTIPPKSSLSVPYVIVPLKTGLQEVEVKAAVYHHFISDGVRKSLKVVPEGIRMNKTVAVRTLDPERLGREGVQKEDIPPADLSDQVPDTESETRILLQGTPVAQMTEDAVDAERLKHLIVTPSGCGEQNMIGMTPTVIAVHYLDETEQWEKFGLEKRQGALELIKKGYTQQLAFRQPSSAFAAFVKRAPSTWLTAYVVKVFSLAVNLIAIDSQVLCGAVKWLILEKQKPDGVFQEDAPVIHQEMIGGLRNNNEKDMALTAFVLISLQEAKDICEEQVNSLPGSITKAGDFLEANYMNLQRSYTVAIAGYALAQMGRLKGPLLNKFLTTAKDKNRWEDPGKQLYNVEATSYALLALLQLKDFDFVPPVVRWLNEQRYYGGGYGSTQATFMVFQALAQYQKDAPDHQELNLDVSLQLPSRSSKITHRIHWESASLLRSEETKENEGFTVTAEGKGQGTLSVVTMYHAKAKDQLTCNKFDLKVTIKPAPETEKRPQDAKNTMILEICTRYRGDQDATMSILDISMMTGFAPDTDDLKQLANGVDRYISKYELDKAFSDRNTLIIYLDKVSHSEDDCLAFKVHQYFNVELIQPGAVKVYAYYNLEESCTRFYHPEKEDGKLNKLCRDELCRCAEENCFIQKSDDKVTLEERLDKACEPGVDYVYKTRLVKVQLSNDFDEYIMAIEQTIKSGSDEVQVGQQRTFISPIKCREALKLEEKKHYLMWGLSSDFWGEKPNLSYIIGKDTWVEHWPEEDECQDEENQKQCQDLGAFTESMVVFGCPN
UniProt Q9H3H3: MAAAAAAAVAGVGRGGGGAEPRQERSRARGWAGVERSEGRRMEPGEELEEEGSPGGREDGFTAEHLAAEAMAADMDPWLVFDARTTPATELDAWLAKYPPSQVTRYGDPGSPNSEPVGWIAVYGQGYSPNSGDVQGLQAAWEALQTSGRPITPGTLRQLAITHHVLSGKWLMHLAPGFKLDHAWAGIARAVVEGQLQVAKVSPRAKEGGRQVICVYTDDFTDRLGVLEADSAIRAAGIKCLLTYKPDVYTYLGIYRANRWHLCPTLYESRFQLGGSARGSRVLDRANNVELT
UniProt O43683: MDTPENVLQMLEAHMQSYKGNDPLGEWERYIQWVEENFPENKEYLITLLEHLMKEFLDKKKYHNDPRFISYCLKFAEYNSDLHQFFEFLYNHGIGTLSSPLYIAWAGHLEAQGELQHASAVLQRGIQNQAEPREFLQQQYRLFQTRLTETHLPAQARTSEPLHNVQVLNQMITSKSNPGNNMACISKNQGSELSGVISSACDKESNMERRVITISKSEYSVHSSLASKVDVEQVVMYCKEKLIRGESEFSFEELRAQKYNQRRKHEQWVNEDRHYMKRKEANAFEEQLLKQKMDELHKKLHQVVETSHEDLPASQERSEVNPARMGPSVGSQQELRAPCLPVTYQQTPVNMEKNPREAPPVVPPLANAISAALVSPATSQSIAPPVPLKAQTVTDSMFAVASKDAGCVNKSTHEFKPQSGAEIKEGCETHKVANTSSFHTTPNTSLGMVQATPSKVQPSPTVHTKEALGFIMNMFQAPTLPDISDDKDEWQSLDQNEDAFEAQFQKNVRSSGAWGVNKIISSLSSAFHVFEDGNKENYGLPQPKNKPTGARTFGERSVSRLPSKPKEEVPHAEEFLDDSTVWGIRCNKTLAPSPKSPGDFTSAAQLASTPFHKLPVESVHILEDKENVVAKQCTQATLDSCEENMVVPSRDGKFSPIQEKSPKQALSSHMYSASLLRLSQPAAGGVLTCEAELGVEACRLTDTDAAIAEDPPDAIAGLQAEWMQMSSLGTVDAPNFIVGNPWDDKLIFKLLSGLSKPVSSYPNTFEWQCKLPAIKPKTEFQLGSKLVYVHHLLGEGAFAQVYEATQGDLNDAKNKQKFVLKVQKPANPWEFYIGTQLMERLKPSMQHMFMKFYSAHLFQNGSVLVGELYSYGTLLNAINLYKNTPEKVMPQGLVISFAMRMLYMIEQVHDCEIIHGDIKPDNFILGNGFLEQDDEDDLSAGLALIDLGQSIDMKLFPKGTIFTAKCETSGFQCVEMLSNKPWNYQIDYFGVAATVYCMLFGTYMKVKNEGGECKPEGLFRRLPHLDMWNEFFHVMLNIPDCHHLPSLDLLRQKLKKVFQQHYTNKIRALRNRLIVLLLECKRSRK
UniProt Q8N8R5: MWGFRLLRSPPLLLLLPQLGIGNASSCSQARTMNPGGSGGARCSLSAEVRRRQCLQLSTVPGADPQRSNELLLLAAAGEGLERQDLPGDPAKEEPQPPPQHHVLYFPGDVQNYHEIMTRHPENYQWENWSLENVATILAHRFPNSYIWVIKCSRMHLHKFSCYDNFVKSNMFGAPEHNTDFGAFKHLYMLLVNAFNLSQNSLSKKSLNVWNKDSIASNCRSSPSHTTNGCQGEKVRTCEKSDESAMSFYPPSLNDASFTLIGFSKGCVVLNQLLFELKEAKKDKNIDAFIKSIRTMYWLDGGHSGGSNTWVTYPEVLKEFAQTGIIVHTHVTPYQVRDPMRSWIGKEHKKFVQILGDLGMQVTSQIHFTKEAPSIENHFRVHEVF
UniProt P17655: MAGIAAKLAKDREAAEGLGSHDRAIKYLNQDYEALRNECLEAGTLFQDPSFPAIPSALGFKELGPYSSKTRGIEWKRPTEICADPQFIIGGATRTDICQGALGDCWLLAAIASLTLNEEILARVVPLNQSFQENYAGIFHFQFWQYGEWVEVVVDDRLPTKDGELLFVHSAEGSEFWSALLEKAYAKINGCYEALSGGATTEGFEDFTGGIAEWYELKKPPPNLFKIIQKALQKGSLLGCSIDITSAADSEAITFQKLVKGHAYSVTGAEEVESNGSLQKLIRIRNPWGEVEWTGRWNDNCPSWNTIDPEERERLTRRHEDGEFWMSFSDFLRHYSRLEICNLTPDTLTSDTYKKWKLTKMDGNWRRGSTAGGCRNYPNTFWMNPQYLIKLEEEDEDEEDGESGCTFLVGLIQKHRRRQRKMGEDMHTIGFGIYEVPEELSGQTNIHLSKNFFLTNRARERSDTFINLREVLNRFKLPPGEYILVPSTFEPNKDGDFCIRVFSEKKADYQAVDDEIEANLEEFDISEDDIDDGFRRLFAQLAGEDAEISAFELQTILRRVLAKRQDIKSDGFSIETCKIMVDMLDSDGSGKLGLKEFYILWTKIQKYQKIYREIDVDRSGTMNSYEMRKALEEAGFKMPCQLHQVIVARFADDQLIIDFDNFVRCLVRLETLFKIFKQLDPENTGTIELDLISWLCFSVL
UniProt Q9HB71, whole entry, looked up: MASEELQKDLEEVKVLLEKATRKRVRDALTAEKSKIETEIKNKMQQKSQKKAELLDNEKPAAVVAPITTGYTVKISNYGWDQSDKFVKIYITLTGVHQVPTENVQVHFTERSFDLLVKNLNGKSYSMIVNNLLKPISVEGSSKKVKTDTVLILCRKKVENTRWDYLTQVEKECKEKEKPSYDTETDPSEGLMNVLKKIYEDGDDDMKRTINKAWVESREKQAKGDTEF
UniProt Q9Y376: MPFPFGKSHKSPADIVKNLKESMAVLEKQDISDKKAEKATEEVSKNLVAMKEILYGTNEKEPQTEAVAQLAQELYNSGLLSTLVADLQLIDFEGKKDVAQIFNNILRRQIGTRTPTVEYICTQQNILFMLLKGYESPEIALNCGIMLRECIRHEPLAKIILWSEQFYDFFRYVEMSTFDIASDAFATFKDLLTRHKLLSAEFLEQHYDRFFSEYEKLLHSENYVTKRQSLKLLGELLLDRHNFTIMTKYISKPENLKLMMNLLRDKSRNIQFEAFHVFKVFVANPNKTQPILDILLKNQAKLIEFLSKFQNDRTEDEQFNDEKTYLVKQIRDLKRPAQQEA
UniProt Q6ZSJ8: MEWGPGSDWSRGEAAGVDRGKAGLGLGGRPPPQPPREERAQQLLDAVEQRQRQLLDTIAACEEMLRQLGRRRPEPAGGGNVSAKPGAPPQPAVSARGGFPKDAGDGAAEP
UniProt Q8NDD1: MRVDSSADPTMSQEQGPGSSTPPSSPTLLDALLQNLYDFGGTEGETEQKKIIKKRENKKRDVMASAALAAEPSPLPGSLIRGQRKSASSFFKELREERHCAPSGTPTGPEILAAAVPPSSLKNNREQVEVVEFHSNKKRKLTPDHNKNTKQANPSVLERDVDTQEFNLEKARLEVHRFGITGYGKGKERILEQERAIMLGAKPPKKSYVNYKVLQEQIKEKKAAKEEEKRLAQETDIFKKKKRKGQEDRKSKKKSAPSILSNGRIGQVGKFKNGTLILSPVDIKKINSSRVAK
UniProt O43709: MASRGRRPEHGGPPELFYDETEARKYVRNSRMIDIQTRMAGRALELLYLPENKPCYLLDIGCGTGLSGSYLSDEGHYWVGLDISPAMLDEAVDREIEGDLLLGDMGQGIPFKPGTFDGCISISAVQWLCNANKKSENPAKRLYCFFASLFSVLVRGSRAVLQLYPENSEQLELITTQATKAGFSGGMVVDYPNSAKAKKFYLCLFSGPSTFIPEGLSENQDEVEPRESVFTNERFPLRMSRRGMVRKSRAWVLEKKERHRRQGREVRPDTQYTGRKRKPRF
UniProt Q9UFG5: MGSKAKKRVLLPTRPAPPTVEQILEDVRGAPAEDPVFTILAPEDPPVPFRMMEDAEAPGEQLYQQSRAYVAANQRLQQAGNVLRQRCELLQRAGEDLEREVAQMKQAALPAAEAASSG
UniProt P47756, whole entry, looked up: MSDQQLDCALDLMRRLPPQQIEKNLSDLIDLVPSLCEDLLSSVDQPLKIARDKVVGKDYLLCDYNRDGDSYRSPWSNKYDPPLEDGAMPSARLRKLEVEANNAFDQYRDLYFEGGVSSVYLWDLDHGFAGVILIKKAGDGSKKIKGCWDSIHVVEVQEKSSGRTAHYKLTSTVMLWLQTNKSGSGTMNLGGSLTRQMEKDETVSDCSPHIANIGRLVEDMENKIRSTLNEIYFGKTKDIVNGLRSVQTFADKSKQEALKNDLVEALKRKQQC

[1] = compound: C/C(=N\NC(=O)C1=CC(=CC=C1)S(=O)(=O)N2CCOCC2)/C3=C(C=CC(=C3)Cl)O
In short: as §1

[2] = compound: C1=CC(=C(C=C1Cl)C2=NC3=NC=CN=C3C(=N2)NC4=CC=NC=C4)F
In short: as §1

[3] = compound: C1=CC(=CC=C1C2=NC3=C(N2)C=C(C=C3)C(=O)N)OC4=CC=C(C=C4)Cl
In short: as §1

[4] = compound: C1=CC2=C(C=CC(=C2)/C=C\3/C(=O)NC(=NCC4=CC=CS4)S3)N=C1
In short: as §1

[5] = compound: C1=CC2=NC=CN=C2C=C1/C=C/3\C(=O)NC(=O)S3
In short: as §1

[6] = compound: C1=CC=C(C=C1)C2=NC(=C(N2)C3=CC=NC=C3)C4=CC(=C(C=C4)Cl)O
In short: as §1

[7] = compound: C1=CC=C2C(=C1)C3=NNC4=CC=CC(=C43)C2=O
In short: as §1

[8] = compound: C1CCN(C1)C(=O)NC2=CC=CC(=C2)NC3=NC=C(C(=N3)NCCC4=CN=CN4)Br
In short: as §1

[9] = compound: C1CN(CCC1(CC2=CC=C(C=C2)Cl)N)C3=NC=NC4=C3C=CN4
In short: as §1

IRAK-1-4 Inhibitor I = compound: C1COCCN1CCN2C3=CC=CC=C3N=C2NC(=O)C4=CC(=CC=C4)[N+](=O)[O-] [IRAK-1-4 Inhibitor I]
In short: as §1

ibrutinib = compound: C=CC(=O)N1CCC[C@@H](n2nc(-c3ccc(Oc4ccccc4)cc3)c3c(N)ncnc32)C1 [ibrutinib]
In short: as §1

[10] = compound: CC(=O)c1cnc2ccc(-c3cc(Cl)c(O)c(Cl)c3)nc2c1N[C@H]1CC[C@H](CN(C)C)CC1
In short: as §1

ralimetinib = compound: CC(C)(C)Cn1c(N)nc2ccc(-c3[nH]c(C(C)(C)C)nc3-c3ccc(F)cc3)nc21 [ralimetinib]
In short: as §1

[11] = compound: CC(C)(O)CC(=O)NCCn1ccc2ncnc(Nc3ccc(Oc4cccc(C(F)(F)F)c4)c(Cl)c3)c21
In short: as §1

[12] = compound: CC(C)C1=C2N=C(C=C(N2N=C1)NCC3=CC=CC=C3)NCCCCCCN
In short: as §1

[13] = compound: CC(C)C[C@@H](C=O)NC(=O)[C@H](CC(C)C)NC(=O)[C@H](CC(C)C)NC(=O)OCc1ccccc1
In short: as §1

pinometostat = compound: CC(C)N(C[C@H]1O[C@@H](n2cnc3c(N)ncnc32)[C@H](O)[C@@H]1O)[C@H]1C[C@@H](CCc2nc3cc(C(C)(C)C)ccc3[nH]2)C1 [pinometostat]
In short: as §1

[14] = compound: CC1=C(C(CC(=O)N1)C2=CC=C(C=C2)C(F)(F)F)C(=O)NC3=C(C=C4C(=C3)C=NN4)F
In short: as §1

[15] = compound: CC1=C(C2=C(C=C1)C(=O)C3=CC=CC=C3N2CCCN)C
In short: as §1

Measured: log2 fold change

CAPN7 (UniProt Q9Y6W3)
inactive: erlotinib 0.003 | [1] 0.083 | [2] 0.005 | [3] -0.023 | [4] 0.016 | [5] 0.043 | [6] -0.088 | [7] 0.019 | [8] -0.039 | [9] -0.026 | IRAK-1-4 Inhibitor I 0.005 | ibrutinib -0.033 | [10] -0.032 | ralimetinib 0.054 | [11] -0.129 | [12] -0.136 | [13] 0 | pinometostat 0.027 | [14] 0 | [15] 0.019

C3 (UniProt P01024)
inactive: erlotinib -0.125 | [1] -0.093 | [2] 0.015 | [3] 0.087 | [4] 0.117 | [5] -0.045 | [6] -0.073 | [7] -0.116 | [8] 0.054 | [9] 0.164 | IRAK-1-4 Inhibitor I 0.03 | ibrutinib 0.219 | [10] 0.087 | ralimetinib -0.008 | [11] 0.274 | [12] 0.148 | [13] -0.002 | pinometostat -0.075 | [14] 0.024 | [15] -0.176

C11orf68 (UniProt Q9H3H3)
inactive: erlotinib -0.017 | [1] 0.061 | [2] 0.063 | [3] 0.03 | [4] 0.028 | [5] 0.022 | [6] 0.031 | [7] 0.017 | [8] -0.025 | [9] 0.027 | IRAK-1-4 Inhibitor I 0.027 | ibrutinib 0.022 | [10] -0.043 | ralimetinib -0.071 | [11] -0.084 | [12] -0.036 | [13] 0.031 | pinometostat -0.012 | [14] -0.004 | [15] 0.024

BUB1 (UniProt O43683)
inactive: erlotinib 0.311 | [1] -0.082 | [2] 0.096 | [3] -0.05 | [4] 0.207 | [5] 0.117 | [6] -0.199 | [7] 0.021 | [8] 0.142 | [9] 0.083 | IRAK-1-4 Inhibitor I 0 | ibrutinib -0.033 | [10] -0.031 | ralimetinib -0.137 | [11] -0.026 | [12] -0.073 | [13] -0.042 | pinometostat 0.019 | [14] 0.128 | [15] 0.125

C2orf69 (UniProt Q8N8R5)
inactive: erlotinib 0.063 | [1] 0.167 | [2] 0.048 | [3] 0.069 | [4] -0.09 | [5] 0.035 | [6] -0.037 | [7] -0.084 | [8] -0.026 | [9] -0.001 | IRAK-1-4 Inhibitor I -0.036 | ibrutinib -0.011 | [10] 0.072 | ralimetinib 0 | [11] -0.14 | [12] 0.064 | [13] 0 | pinometostat -0.032 | [14] -0.016 | [15] -0.026

C11orf98 (UniProt E9PRG8)
inactive: erlotinib -0.158 | [1] -0.14 | [2] -0.427 | [3] 0.039 | [4] -0.04 | [5] 0.012 | [6] -0.062 | [7] 0.023 | [8] 0.073 | [9] -0.046 | IRAK-1-4 Inhibitor I -0.147 | ibrutinib 0.067 | [10] 0.046 | ralimetinib 0.146 | [11] 0.07 | [12] 0.02 | [13] 0.113 | pinometostat 0.182 | [14] 0.019 | [15] -0.271

CAPN2 (UniProt P17655)
inactive: erlotinib 0.029 | [1] 0.025 | [2] 0.071 | [3] 0.023 | [4] 0.008 | [5] -0.012 | [6] 0.016 | [7] 0.015 | [8] -0.007 | [9] 0.04 | IRAK-1-4 Inhibitor I 0.055 | ibrutinib 0.042 | [10] 0.019 | ralimetinib -0.017 | [11] 0 | [12] 0.017 | [13] -0.067 | pinometostat -0.003 | [14] 0.003 | [15] 0.001

CAPZA2 (UniProt P47755)
inactive: erlotinib -0.056 | [1] 0.049 | [2] 0.041 | [3] 0.02 | [4] -0.013 | [5] 0.015 | [6] 0.03 | [7] -0.007 | [8] 0.031 | [9] 0.042 | IRAK-1-4 Inhibitor I 0.034 | ibrutinib 0.003 | [10] 0.011 | ralimetinib 0 | [11] -0.033 | [12] 0.015 | [13] -0.012 | pinometostat -0.027 | [14] 0.014 | [15] -0.009

CACYBP (UniProt Q9HB71)
inactive: erlotinib 0.021 | [1] 0.032 | [2] 0.011 | [3] -0.031 | [4] -0.019 | [5] 0.018 | [6] 0.023 | [7] 0.034 | [8] 0.027 | [9] 0.01 | IRAK-1-4 Inhibitor I 0.036 | ibrutinib 0.006 | [10] -0.014 | ralimetinib -0.022 | [11] -0.004 | [12] 0.02 | [13] -0.001 | pinometostat -0.001 | [14] 0.004 | [15] 0.037

Random excerpt: two records from the list, in no set order.
C2orf69 (UniProt Q8N8R5)
inactive: erlotinib 0.063 | [1] 0.167 | [2] 0.048 | [3] 0.069 | [4] -0.09 | [5] 0.035 | [6] -0.037 | [7] -0.084 | [8] -0.026 | [9] -0.001 | IRAK-1-4 Inhibitor I -0.036 | ibrutinib -0.011 | [10] 0.072 | ralimetinib 0 | [11] -0.14 | [12] 0.064 | [13] 0 | pinometostat -0.032 | [14] -0.016 | [15] -0.026

C11orf98 (UniProt E9PRG8)
inactive: erlotinib -0.158 | [1] -0.14 | [2] -0.427 | [3] 0.039 | [4] -0.04 | [5] 0.012 | [6] -0.062 | [7] 0.023 | [8] 0.073 | [9] -0.046 | IRAK-1-4 Inhibitor I -0.147 | ibrutinib 0.067 | [10] 0.046 | ralimetinib 0.146 | [11] 0.07 | [12] 0.02 | [13] 0.113 | pinometostat 0.182 | [14] 0.019 | [15] -0.271

Going on with the list.

CAB39 (UniProt Q9Y376)
inactive: erlotinib -0.004 | [1] -0.025 | [2] 0.022 | [3] -0.018 | [4] 0.034 | [5] -0.009 | [6] 0.016 | [7] 0.012 | [8] -0.004 | [9] 0.029 | IRAK-1-4 Inhibitor I 0.044 | ibrutinib 0.014 | [10] 0.005 | ralimetinib -0.044 | [11] -0.02 | [12] 0.051 | [13] -0.013 | pinometostat -0.053 | [14] -0.002 | [15] 0.018

C1orf122 (UniProt Q6ZSJ8)
inactive: erlotinib 0.181 | [1] 0.145 | [2] 0.079 | [3] -0.042 | [4] -0.17 | [5] -0.002 | [6] 0.125 | [7] 0.05 | [8] -0.056 | [9] 0.03 | IRAK-1-4 Inhibitor I 0.023 | ibrutinib 0.047 | [10] 0.016 | ralimetinib 0.063 | [11] -0.07 | [12] 0.051 | [13] -0.103 | pinometostat -0.039 | [14] 0 | [15] 0.077

C1orf131 isoform 5 (UniProt Q8NDD1)
inactive: erlotinib -0.051 | [1] -0.169 | [2] -0.303 | [3] -0.001 | [4] -0.053 | [5] 0 | [6] -0.092 | [7] -0.025 | [8] 0.139 | [9] -0.096 | IRAK-1-4 Inhibitor I -0.132 | ibrutinib 0.03 | [10] 0.099 | ralimetinib 0.077 | [11] 0.085 | [12] 0.126 | [13] 0.109 | pinometostat 0.238 | [14] 0.064 | [15] -0.024

BUD23 isoform 3 (UniProt O43709)
inactive: erlotinib 0.087 | [1] -0.085 | [2] -0.198 | [3] 0.022 | [4] 0.146 | [5] 0.027 | [6] -0.039 | [7] 0.027 | [8] 0.079 | [9] -0.023 | IRAK-1-4 Inhibitor I 0.001 | ibrutinib -0.015 | [10] -0.064 | ralimetinib 0.071 | [11] 0.007 | [12] -0.054 | [13] 0.11 | pinometostat 0.106 | [14] -0.032 | [15] 0.032

C19orf25 (UniProt Q9UFG5)
inactive: erlotinib -0.031 | [1] 0.008 | [2] 0.27 | [3] 0.015 | [4] 0.094 | [5] 0.111 | [6] 0.037 | [7] 0.042 | [8] 0 | [9] -0.03 | IRAK-1-4 Inhibitor I -0.005 | ibrutinib 0.017 | [10] -0.136 | ralimetinib -0.143 | [11] -0.134 | [12] 0.071 | [13] -0.069 | pinometostat -0.112 | [14] 0.036 | [15] 0.353

CAPZA1 (UniProt P52907)
inactive: erlotinib -0.001 | [1] 0.018 | [2] 0.028 | [3] 0.015 | [4] 0.048 | [5] 0.011 | [6] 0.006 | [7] 0 | [8] -0.051 | [9] 0.01 | IRAK-1-4 Inhibitor I 0.03 | ibrutinib 0.031 | [10] 0.018 | ralimetinib -0.023 | [11] -0.012 | [12] 0.061 | [13] -0.019 | pinometostat -0.033 | [14] 0.006 | [15] 0.041

CAPZB isoform 2 (UniProt P47756)
inactive: erlotinib -0.007 | [1] -0.024 | [2] 0.075 | [3] -0.074 | [4] -0.033 | [5] 0.055 | [6] 0.024 | [7] -0.013 | [8] 0.067 | [9] 0.02 | IRAK-1-4 Inhibitor I 0.057 | ibrutinib -0.02 | [10] 0.054 | ralimetinib -0.024 | [11] 0.008 | [12] 0.069 | [13] -0.07 | pinometostat 0.029 | [14] 0.02 | [15] -0.056

Reference: the supplement of paper PMC10849652
